According to EP1017810B1 (THE GOVERNMENT OF THE UNITED STATES OF AMERICA, as …, priority 1997, dated 2004):
Strings that start with PEPTIDE1 are HELM notation: dots part the residues, brackets hold end groups and non-standard residues.

Test: general procedure: Fmoc solid-phase peptide synthesis
Conditions: whole synthesis, C18 reverse-phase HPLC

Substance: PEPTIDE1{Y.L.S.G.A.N.I.N.L}$$$$V2.0
- purity (crude or final not stated): greater than 90% pure
